From US12194048B2, “Use of pyrrolopyridine derivatives for preventing or treating inflammatory diseases” (VORONOI CO., LTD., priority 2020, dated 2025)
For at least one compound, name, drawing or mass did not settle the structure.

Test system: IMQ-induced psoriasis-like skin inflammation model
Experiment: Topical treatment in imiquimod (IMQ)-induced psoriasis-like skin inflammation
Type: in vivo, BALB/c mice
Procedure: Dexamethasone (0.15%), the reference compound, was applied topically at 20 μL/mouse on the right ear once daily (QD) during the same study period.
Fifteen (15) mg imiquimod (IMQ) cream (5%) (Aldara; 3M Pharmaceuticals) was topically administered once daily (QD) on the right ear one hour after treatment from Day 1 to Day 9 for 9 consecutive days, translating to a daily dose of 0.75 mg of the active compound.
Ear swelling was measured on Day 0 and thereafter 30 min before dosing on Days 2, 4, 6 and 8. On Day 10, ear swelling was measured 24 hours after the last dosing.

SMILES: C[C@@H]1C[C@H]2[C@@H]3CCC4=CC(=O)C=C[C@]4(C)[C@@]3(F)[C@@H](O)C[C@]2(C)[C@@]1(O)C(=O)CO [dexamethasone, reference compound]
- IMQ-induced ear swelling (0.15% topical 20 μL/mouse QD): significantly (p<0.05) reduced
- severity of skin lesions (histopathological examination of the ear skin) (0.15% topical, vs no treatment group and vehicle group): attenuated significantly
